According to paper PMC11210931:
Results are given in words; binding and its absence hold for the method and conditions named. In cells and extracts the contact can be indirect. Some entries that bind do so weakly or less than the wild type.

Chains of the proteins cited; added tags and fusions are not shown. Residues count along the entry.
UniProt P10909, residues 23-449: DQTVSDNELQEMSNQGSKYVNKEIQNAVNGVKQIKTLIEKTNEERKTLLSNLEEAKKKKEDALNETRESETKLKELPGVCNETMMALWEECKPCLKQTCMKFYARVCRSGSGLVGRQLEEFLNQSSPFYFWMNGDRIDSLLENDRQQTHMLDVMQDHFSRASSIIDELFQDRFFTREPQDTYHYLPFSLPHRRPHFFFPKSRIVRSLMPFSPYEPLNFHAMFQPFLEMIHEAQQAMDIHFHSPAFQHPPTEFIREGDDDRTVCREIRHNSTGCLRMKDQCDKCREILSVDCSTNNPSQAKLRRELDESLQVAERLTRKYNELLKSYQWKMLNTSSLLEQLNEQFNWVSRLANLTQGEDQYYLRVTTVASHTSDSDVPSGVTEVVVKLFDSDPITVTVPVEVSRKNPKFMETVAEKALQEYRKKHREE
UniProt Q07812: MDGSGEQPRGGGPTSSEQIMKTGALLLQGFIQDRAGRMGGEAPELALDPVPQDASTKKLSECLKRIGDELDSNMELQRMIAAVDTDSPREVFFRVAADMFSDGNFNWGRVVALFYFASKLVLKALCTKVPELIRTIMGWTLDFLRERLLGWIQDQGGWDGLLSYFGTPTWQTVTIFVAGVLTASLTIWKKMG

Legend:
[1] = biological target: CLU (clusterin), wild type, stably overexpressed in FaDu cells (UniProt P10909); experiment: co-IP; lysate of FaDu-CLU cells expressing wild-type or mLIR CLU, with/without cisplatin, in combination with BAX chelator (50 nM; 3 h); anti-CLU antibody on Dynabeads Protein A; CLU, LC3 and BAX detected by western blot
[2] = biological target: CLU (clusterin), endogenous in CAL-33 cells (human (endogenous in CAL-33)) (UniProt P10909); experiment: co-IP; lysate of cisplatin-treated CAL-33 cells, 350 ug protein; Dynabeads Protein A with anti-CLU, anti-LC3 or anti-BAX (6A7) antibody, overnight at 4 C; CLU, LC3 and BAX detected by western blot; normal IgG as negative control

BAX (conformation-altered BAX, detected by antibody clone 6A7) (from UniProt Q07812 1-192)
binding [1]: binds
binding [2]: binds
